Earlier results, collected in patent US20230218746A1, “COMPOSITIONS AND METHODS RELATING TO ANTIVIRAL THERAPEUTICS” (priority 2020, published 2023).
At least one compound was matched to its structure with a doubt left.

Tested on: COVID-19
Details: hospitalized COVID-19 patients; cited from earlier work

CCC(CC)COC(=O)[C@H](C)N[P@](=O)(OC[C@H]1O[C@@](C#N)(c2ccc3c(N)ncnn23)[C@H](O)[C@@H]1O)Oc1ccccc1 [remdesivir]
effect on overall mortality, necessity for mechanical ventilation, and length of hospital stay: little or no effect
